These are yes or no findings as the source states them, for the method shown. Binding seen in cells or lysates may run through a third protein. Here binding means that the protein was enriched with, or labelled near, the bait; the list need not be complete.
Target: Natriuretic peptide receptor A (human (endogenous in AGS)) (UniProt P16066)
Test: affinity purification with mass spectrometry; IP from total protein of GC cells with primary antibody and protein A/G-agarose beads; immunoprecipitates analysed by MS

Protein sequences, listed by entry. Tags and fused reporters are not part of them. Residues count along the entry.
UniProt P16066, residues 33-1061: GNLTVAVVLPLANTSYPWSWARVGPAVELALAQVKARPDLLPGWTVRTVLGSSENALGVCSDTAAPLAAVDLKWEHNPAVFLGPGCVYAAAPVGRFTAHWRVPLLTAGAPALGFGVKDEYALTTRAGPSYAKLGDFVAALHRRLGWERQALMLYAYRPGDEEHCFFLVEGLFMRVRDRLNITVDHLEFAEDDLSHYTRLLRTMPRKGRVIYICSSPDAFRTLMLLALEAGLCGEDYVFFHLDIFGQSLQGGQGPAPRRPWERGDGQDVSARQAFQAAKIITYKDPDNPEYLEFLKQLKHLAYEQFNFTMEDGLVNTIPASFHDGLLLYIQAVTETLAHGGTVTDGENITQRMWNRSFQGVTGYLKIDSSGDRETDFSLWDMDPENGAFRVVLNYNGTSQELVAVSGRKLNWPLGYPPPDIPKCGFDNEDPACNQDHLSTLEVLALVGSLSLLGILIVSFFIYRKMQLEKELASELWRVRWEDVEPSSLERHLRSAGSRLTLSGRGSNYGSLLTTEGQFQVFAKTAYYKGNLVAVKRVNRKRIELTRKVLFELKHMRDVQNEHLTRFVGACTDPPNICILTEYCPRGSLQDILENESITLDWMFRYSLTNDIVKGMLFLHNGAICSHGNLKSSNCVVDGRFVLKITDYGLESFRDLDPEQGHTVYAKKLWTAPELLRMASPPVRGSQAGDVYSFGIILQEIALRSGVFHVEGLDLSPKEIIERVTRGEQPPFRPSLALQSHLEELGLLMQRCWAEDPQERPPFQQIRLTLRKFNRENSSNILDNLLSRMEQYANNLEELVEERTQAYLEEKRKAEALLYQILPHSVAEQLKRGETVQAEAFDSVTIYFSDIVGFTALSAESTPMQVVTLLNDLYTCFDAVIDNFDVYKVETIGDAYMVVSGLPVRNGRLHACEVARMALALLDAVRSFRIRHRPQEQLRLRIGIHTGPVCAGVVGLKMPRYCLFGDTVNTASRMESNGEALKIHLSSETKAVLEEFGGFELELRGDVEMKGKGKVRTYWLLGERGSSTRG
UniProt Q16665: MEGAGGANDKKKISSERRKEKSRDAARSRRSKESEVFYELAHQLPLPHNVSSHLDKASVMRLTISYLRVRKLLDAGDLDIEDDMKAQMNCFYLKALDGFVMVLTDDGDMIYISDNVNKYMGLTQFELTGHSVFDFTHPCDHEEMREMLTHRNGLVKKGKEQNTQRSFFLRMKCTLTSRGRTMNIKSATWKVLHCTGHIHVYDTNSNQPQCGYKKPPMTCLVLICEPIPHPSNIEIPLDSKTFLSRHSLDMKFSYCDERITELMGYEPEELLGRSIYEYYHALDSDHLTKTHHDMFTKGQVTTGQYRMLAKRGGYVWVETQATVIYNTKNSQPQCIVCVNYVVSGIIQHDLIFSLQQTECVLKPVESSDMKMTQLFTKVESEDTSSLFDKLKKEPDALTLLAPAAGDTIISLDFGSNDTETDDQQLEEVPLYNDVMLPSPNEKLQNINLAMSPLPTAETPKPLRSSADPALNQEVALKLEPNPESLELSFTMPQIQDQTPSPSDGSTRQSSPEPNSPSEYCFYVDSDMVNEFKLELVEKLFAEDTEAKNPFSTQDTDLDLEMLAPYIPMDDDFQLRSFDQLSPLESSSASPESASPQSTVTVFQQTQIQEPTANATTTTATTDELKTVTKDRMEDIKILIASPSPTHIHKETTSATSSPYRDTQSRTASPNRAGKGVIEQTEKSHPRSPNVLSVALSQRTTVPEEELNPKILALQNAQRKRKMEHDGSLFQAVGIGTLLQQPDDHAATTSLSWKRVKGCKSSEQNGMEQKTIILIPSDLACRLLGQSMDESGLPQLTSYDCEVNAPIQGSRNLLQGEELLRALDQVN

- binding: binds
Substance: Hypoxia-inducible factor-1 alpha (from UniProt Q16665 1-826)

From PMC8528824
